Some of the results follow.

Chains of the proteins cited; added tags and fusions are not shown.
UniProt Q0JBA9, entry or part of it: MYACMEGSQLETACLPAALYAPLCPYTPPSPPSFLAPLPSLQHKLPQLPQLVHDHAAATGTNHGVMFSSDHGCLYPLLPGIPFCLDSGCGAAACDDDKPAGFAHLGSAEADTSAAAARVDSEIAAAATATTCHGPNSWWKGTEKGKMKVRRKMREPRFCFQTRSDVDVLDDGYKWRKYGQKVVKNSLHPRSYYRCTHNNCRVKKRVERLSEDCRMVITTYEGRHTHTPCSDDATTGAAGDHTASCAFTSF

The experiment concerns the target OsWRKY34 (Oryza sativa, UniProt Q0JBA9 1-250). Kind of experiment: protein-binding microarray (RPBM); PBS, 2% BSA, 51.3 ng/ul salmon testes DNA, 50 uM zinc acetate, 200 nM TF, 25 C, 1 h; high values mean tight binding. Particulars: protein: recombinant; tags: N-terminal polyhistidine and DsRed monomer fusion (pET32a); label: CyDye5-dUTP incorporated in the synthesized complementary strand; 3' TTTTT single-stranded linker to array surface; dsDNA, one strand shown. The procedure, abridged: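 Transcription factors were each fused at the N-terminus to a polyhistidine tag plus DsRed and expressed in E. coli BL21-CodonPlus before Ni–NTA purification. Binding to a double-stranded custom Agilent array was carried out with 200 nM protein at 25 °C for 1 h in PBS, 2% BSA, salmon testes DNA and 50 µM zinc acetate. The binding signal is per-feature fluorescence intensity, in arbitrary units, on an Axon 4000B scanner.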
As for “TAGAAAGATTCTGGTTCCGCCACCCATTATCCATGCTAATCGGAGTCACCTAGTGCAG”, the binding signal was 9610 fluorescence intensity (a.u.).
The result for “TACCACCCACGCACGCTCGCCGGCAACCTCTCCGCGTTCGCGGAGTCACCTAGTGCAG” reads 9310 fluorescence intensity (a.u.).
Turning to “CCCACACTTCTCCCGTTCTCCTGGAGGAAGACGACACCCACGGAGTCACCTAGTGCAG”, the binding signal was 8150 fluorescence intensity (a.u.).
The result for “ATTTTCCTTGATTTTTTTTGTGTGTTTGGGAATTGGGATACGGAGTCACCTAGTGCAG” reads 12600 fluorescence intensity (a.u.); that for “GGAGGTGTCGCCGTTCCCGTTGTTCTGCTGCCTCGAGCCCCGGAGTCACCTAGTGCAG”, 13000 fluorescence intensity (a.u.).
On to “CTCCTCCTTACCTTCCCTGCTCGGGGAGGTCGGGGTCGCTCGGAGTCACCTAGTGCAG”, for which the binding signal was 8780 fluorescence intensity (a.u.).
Take “GTATACTCTGCTGATGTGTTTATGTGTTTAAGGTCGTTGACGGAGTCACCTAGTGCAG”: the binding signal is 10000 fluorescence intensity (a.u.).
Take “TTCAAAATATTTGACACCGTTGACTTTTTAGTACGTGTTTCGGAGTCACCTAGTGCAG”: the binding signal was 18200 fluorescence intensity (a.u.).
Turning to “CTACTGTATACTACTCTCAGTTTCTTCTTGTTTCTTAGTCCGGAGTCACCTAGTGCAG”, the binding signal is 12600 fluorescence intensity (a.u.).
In the case of “GCTTCTTTCGCAAACACAGCCACGAAGTTATACAAATTTTCGGAGTCACCTAGTGCAG”, the binding signal was 8460 fluorescence intensity (a.u.).
“CCAAAACTTTGATCACTAACCATCTTATCTCAGTTTGATCCGGAGTCACCTAGTGCAG”: the binding signal was 8340 fluorescence intensity (a.u.).
For the sequence “GTCCAGTCAATTTGTCAAATTTTCTTCTGCTGGTCTTGATCGGAGTCACCTAGTGCAG”, the binding signal was 13200 fluorescence intensity (a.u.).
Consider “CAATTATCATTTATTTTGTTGTGAGTTGTTTTATCACTAACGGAGTCACCTAGTGCAG”, for which the binding signal was 8660 fluorescence intensity (a.u.).
For the sequence “GTCTTGATTGCTTCAATTTTGCGTTACCTTACCATTTCTTCGGAGTCACCTAGTGCAG”, the binding signal was 10800 fluorescence intensity (a.u.).
In the case of “TGATTGTTGTGATTAACAAAGTTGTAATATCTTTTGGTTTCGGAGTCACCTAGTGCAG”, the binding signal is 8040 fluorescence intensity (a.u.).
As to “CGCCGCCGACTTTTCCAGACTTACCGCCTATTCTAATCCCCGGAGTCACCTAGTGCAG”, the binding signal is 10200 fluorescence intensity (a.u.).
Turning to “CGTCTCCGGCGACCGCCGCCGCCGCCGCCCTCACCGTCCGCGGAGTCACCTAGTGCAG”, the binding signal is 8920 fluorescence intensity (a.u.).
Turning to “TTGAAACTCAACGATACATCACTAGCTACCATTACGTATACGGAGTCACCTAGTGCAG”, the binding signal was 8320 fluorescence intensity (a.u.).
For the sequence “CATGAGCACATAATCTCCCACTGGTCAAATCCAATGCACCCGGAGTCACCTAGTGCAG”, the binding signal is 8680 fluorescence intensity (a.u.).
Regarding “ATATGTTTTGTATTGGGAGGGAGGGAGTAATCGCTGAAGGCGGAGTCACCTAGTGCAG”, the binding signal was 8880 fluorescence intensity (a.u.).
“TCAGAATAGGGGTTTGGTTATTCCACTAGGTTATTCCGTACGGAGTCACCTAGTGCAG”: the binding signal was 8390 fluorescence intensity (a.u.).
“ACCATTTCTCTTCGTTTCTCTATGTATGACGTTTAGCTTGCGGAGTCACCTAGTGCAG”: the binding signal is 9320 fluorescence intensity (a.u.).
The result for “AATCCTAACCATGATGCTGTTCTTGTCTGTACTACTGCAACGGAGTCACCTAGTGCAG” reads 8630 fluorescence intensity (a.u.); that for “GTGCATTTGGCATTTGCTGTTAACTTACTGATTGGACAATCGGAGTCACCTAGTGCAG”, 8140 fluorescence intensity (a.u.); that for “AGCTCACCATTCCTCGCCTCCTAGGGTTTCCTCCTATCCACGGAGTCACCTAGTGCAG”, 9500 fluorescence intensity (a.u.).
On to “GGAGCACATAACATGCACGTCGGCCTCTGCCGCGTACGTACGGAGTCACCTAGTGCAG”, for which the binding signal is 8100 fluorescence intensity (a.u.).
Regarding “AACTTTATATTTTTATATTTTTGTTCTAATTTAAACCACCCGGAGTCACCTAGTGCAG”, the binding signal is 8600 fluorescence intensity (a.u.).
The result for “AGTTCATATTATTTCGCGTTCTCTATCGATCGCGTGTATACGGAGTCACCTAGTGCAG” reads 8050 fluorescence intensity (a.u.).
On to “TAATTATTACCGCTCCAACCACTATCCTAAAGTAGCTAACCGGAGTCACCTAGTGCAG”, for which the binding signal was 9380 fluorescence intensity (a.u.).
In the case of “TTCGACCAAATCTACTGTTTAACCTTCGAAATTCTAATCACGGAGTCACCTAGTGCAG”, the binding signal is 8310 fluorescence intensity (a.u.).
Turning to “GGCACCGCTCCTTCCCCTGGCGCCGCTCCGTCCTCCTCCGCGGAGTCACCTAGTGCAG”, the binding signal was 8220 fluorescence intensity (a.u.).
“GCTCAGTCGCTCACTTGCTTACATATCTCTCGCTCACTTGCGGAGTCACCTAGTGCAG”: the binding signal is 8400 fluorescence intensity (a.u.).
For “ACTAACCAAAACCGGTCATAATAGGTCCCTCGGTGGTTTTCGGAGTCACCTAGTGCAG”, the binding signal was 9310 fluorescence intensity (a.u.).
For the sequence “ATGTTGCTTGTGATGTATTGATTGTTTTTGCCAAAATATTCGGAGTCACCTAGTGCAG”, the binding signal was 9150 fluorescence intensity (a.u.).
For the sequence “CGCCACCCCACCTCGCGCCTCTGCGGCTATGGCTATATCACGGAGTCACCTAGTGCAG”, the binding signal was 8420 fluorescence intensity (a.u.).
As to “AGACCATTGAATTCCTGTAGCAGAGTCTATTCTGAAATCCCGGAGTCACCTAGTGCAG”, the binding signal was 9270 fluorescence intensity (a.u.).
In the case of “TCTGCTGCTTCATCACGATGGCCATGTCCTTGAGCGCGCTCGGAGTCACCTAGTGCAG”, the binding signal is 8600 fluorescence intensity (a.u.).
In the case of “GTGTTCCTTGTGATTCATTTAATTTGTTGCCTATGGCAGCCGGAGTCACCTAGTGCAG”, the binding signal was 9150 fluorescence intensity (a.u.).
“GAAACCCAAACCAGAATGGCACCACGACTCCACCGCCCGACGGAGTCACCTAGTGCAG”: the binding signal is 8910 fluorescence intensity (a.u.).
The result for “CCATGTGCGTGCCACCAAATTTCCCTGGAGACCGATCTCACGGAGTCACCTAGTGCAG” reads 8730 fluorescence intensity (a.u.); that for “GATTCTGCTTTGTTTGTGTTTATGAATGTACCAATAATTTCGGAGTCACCTAGTGCAG”, 9670 fluorescence intensity (a.u.).
To “GTGTGAAAGCCATATGCATTTTTTAGTTAGGTATAGATTTCGGAGTCACCTAGTGCAG” belongs 8060 fluorescence intensity (a.u.).

The values above are taken from PMC7819943, “Rice protein-binding microarrays: a tool to detect cis-acting elements near promoter regions in rice”.
